# Results from publication doi:10.1101/2025.03.19.644120.
# Results are given in words; binding and its absence hold for the method and conditions named. In cells and extracts the contact can be indirect. Some binding calls cover weakened binding; strength is not graded here. For some assays here: Sequences can lack the tags named with a protein.
# B1: FRO2-mCitC (protein, UniProt P92949 1-725)
# chain: MEIEKSNNGGSNPSAGEEFKDMIKGVTKFLMMVIFLGTIMLWIMMPTLTYRTKWLPHLRIKFGTSTYFGATGTTLFMYMFPMMVVACLGCVYLHFKNRKSPHHIDRETKGGVWSKLRKPMLVKGPLGIVSVTEITFLAMFVALLLWCFITYLRNSFATITPKSAAAHDESLWQAKLESAALRLGLIGNICLAFLFLPVARGSSLLPAMGLTSESSIKYHIWLGHMVMALFTVHGLCYIIYWASMHEISQMIMWDTKGVSNLAGEIALAAGLVMWATTYPKIRRRFFEVFFYTHYLYIVFMLFFVLHVGISFSFIALPGFYIFLVDRFLRFLQSRENVRLLAARILPSDTMELTFSKNSKLVYSPTSIMFVNIPSISKLQWHPFTITSSSKLEPEKLSIVIKKEGKWSTKLHQRLSSSDQIDRLAVSVEGPYGPASADFLRHEALVMVCGGSGITPFISVIRDLIATSQKETCKIPKITLICAFKKSSEISMLDLVLPLSGLETELSSDINIKIEAFITRDNDAGDEAKAGKIKTLWFKPSLSDQSISSILGPNSWLWLGAILASSFLIFMIIIGIITRYYIYPIDHNTNKIYSLTSKTIIYILVISVSIMATCSAAMLWNKKKYGKVESKQVQNVDRPSPTSSPTSSWGYNSLREIESTPQESLVQRTNLHFGERPNLKKLLLDVEGSSVGVLVCGPKKMRQKVAEICSSGLAENLHFESISFSW
# Assays:
# [1] = target: T1, IRT1-ALFA fusion 3 (ALFA tag inserted in the large cytosolic loop of IRT1) (Arabidopsis thaliana) (UniProt Q38856); assay: split reporter
# T1 sequence: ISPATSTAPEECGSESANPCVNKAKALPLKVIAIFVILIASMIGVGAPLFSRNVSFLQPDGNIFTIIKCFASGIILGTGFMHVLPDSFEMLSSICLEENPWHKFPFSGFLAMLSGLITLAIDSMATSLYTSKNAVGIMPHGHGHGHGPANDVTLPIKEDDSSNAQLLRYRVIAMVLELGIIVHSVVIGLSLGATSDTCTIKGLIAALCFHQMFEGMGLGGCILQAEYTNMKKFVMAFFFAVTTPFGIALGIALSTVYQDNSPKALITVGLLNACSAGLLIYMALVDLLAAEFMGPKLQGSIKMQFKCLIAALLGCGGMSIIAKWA
# Lti6b-ALFA = target: T2, Lti6b-ALFA (UniProt Q9ZNS6); assay: split reporter
# T2 sequence: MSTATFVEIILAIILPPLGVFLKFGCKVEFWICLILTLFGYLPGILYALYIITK
binder,measurement,setting,value
B1,binding,[1],binds
same,binding,Lti6b-ALFA,no binding
